Patent US9365577B2, “Pyrimidinone compounds as human neutrophil elastase inhibitors” (CHIESI FARMACEUTICI S.p.A., priority 2012, dated 2016)
Where a name gives a salt, the structure may show the parent alone. Some entries share one result that the patent states for a list of compounds.

molecular target: T1, human neutrophil elastase (HNE) (Homo sapiens, UniProt P08246); test: HNE enzyme assay; type: biochemical; conditions: human leukocyte elastase, substrate MeOSuc-Ala-Ala-Pro-Val-AMC, 25° C. for 30 minutes, fluorescence; at least two separate experiments; read-out: HNE inhibition
T1 construct: purchased Sigma E8140
T1 sequence (P08246 30-267): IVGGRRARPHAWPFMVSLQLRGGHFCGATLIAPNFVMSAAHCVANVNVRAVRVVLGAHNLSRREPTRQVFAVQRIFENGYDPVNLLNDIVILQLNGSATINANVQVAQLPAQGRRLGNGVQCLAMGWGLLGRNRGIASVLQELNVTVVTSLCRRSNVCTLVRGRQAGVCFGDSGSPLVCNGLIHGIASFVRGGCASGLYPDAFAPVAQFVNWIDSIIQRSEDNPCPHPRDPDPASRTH

SMILES	IC50 [nM]
COC(=O)C1=C(C)N(c2cccc(C(F)(F)F)c2)c2n[nH]c(=O)n2C1c1ccc(C#N)cc1C#CCCO (stereo not shown) [Example 1, 5-[4-Cyano-2-(4-hydroxy-but-1-ynyl)-phenyl]-7-methyl-3-oxo-8-(3-trifluoromethyl-phenyl)-2,3,5,8-tetrahydro-[1,2,4]triazolo[4,3-a]pyrimidine-6-carboxylic acid methyl ester]	< 20
COC(=O)C1=C(C)N(c2cccc(C(F)(F)F)c2)c2n[nH]c(=O)n2C1c1ccc(C#N)cc1C#CCN(C)C (stereo not shown) [Example 2, 5-[4-Cyano-2-(3-dimethylamino-prop-1-ynyl)-phenyl]-7-methyl-3-oxo-8-(3-trifluoromethyl-phenyl)-2,3,5,8-tetrahydro-[1,2,4]triazolo[4,3-a]pyrimidine-6-carboxylic acid methyl ester formate salt]	< 20
COC(=O)C1=C(C)N(c2cccc(C(F)(F)F)c2)c2nn(CCCS(C)(=O)=O)c(=O)n2C1c1ccc(C#N)cc1C#CCN(C)C (stereo not shown) [Example 3, 5-[4-Cyano-2-(3-dimethylamino-prop-1-ynyl)-phenyl]-2-(3-methanesulfonyl-propyl)-7-methyl-3-oxo-8-(3-trifluoromethyl-phenyl)-2,3,5,8-tetrahydro-[1,2,4]triazolo[4,3-a]pyrimidine-6-carboxylic acid methyl ester]	< 20
COC(=O)C1=C(C)N(c2cccc(C(F)(F)F)c2)c2nn(CCCS(C)(=O)=O)c(=O)n2C1c1ccc(C#N)cc1C#CC[N+](C)(C)C (stereo not shown) [Example 4, (3-{5-Cyano-2-[2-(3-methanesulfonyl-propyl)-6-methoxycarbonyl-7-methyl-3-oxo-8-m-tolyl-2,3,5,8-tetrahydro-[1,2,4]triazolo[4,3-a]pyrimidin-5-yl]-phenyl}-prop-2-ynyl)-trimethyl-ammonium formate]	< 20
COC(=O)C1=C(C)N(c2cccc(C(F)(F)F)c2)c2n[nH]c(=O)n2C1c1ccc(C#N)cc1CN(C)C (stereo not shown) [Example 6, 5-(4-Cyano-2-dimethylaminomethyl-phenyl)-7-methyl-3-oxo-8-(3-trifluoromethyl-phenyl)-2,3,5,8-tetrahydro-[1,2,4]triazolo[4,3-a]pyrimidine-6-carboxylic acid methyl ester]	< 20
COC(=O)C1=C(C)N(c2cccc(C(F)(F)F)c2)c2n[nH]c(=O)n2C1c1ccc(C#N)cc1C[N+](C)(C)C (stereo not shown) [Example 7, {5-Cyano-2-[6-methoxycarbonyl-7-methyl-3-oxo-8-(3-trifluoromethyl-phenyl)-2,3,5,8-tetrahydro-[1,2,4]triazolo[4,3-a]pyrimidin-5-yl]-benzyl}-trimethyl-ammonium bromide]	< 20
COC(=O)C1=C(C)N(c2cccc(C(F)(F)F)c2)c2n[nH]c(=O)n2C1c1ccc(C#N)cc1C(=O)NCC[N+](C)(C)C (stereo not shown) [Example 8, (2-{5-Cyano-2-[6-methoxycarbonyl-7-methyl-3-oxo-8-(3-trifluoromethyl-phenyl)-2,3,5,8-tetrahydro-[1,2,4]triazolo[4,3-a]pyrimidin-5-yl]-benzoylamino}-ethyl)-trimethyl-ammonium chloride]	< 20
COC(=O)C1=C(C)N(c2cccc(C(F)(F)F)c2)c2n[nH]c(=O)n2[C@@H]1c1ccc(C#N)cc1C#CCN(C)C [Example 10, (R)-5-[4-Cyano-2-(3-dimethylamino-prop-1-ynyl)-phenyl]-7-methyl-3-oxo-8-(3-trifluoromethyl-phenyl)-2,3,5,8-tetrahydro-[1,2,4]triazolo[4,3-a]pyrimidine-6-carboxylic acid methyl ester]	< 20
COC(=O)C1=C(C)N(c2cccc(C(F)(F)F)c2)c2n[nH]c(=O)n2[C@@H]1c1ccc(C#N)cc1C#CC[N+](C)(C)C [Example 11, (3-{5-Cyano-2-[(R)-6-methoxycarbonyl-7-methyl-3-oxo-8-(3-trifluoromethyl-phenyl)-2,3,5,8-tetrahydro-[1,2,4]triazolo[4,3-a]pyrimidin-5-yl]-phenyl}-prop-2-ynyl)-trimethyl-ammonium iodide]	< 20
COC(=O)C1=C(C)N(c2cccc(C(F)(F)F)c2)c2n[nH]c(=O)n2[C@@H]1c1ccc(C#N)cc1CCC[N+](C)(C)C [Example 13]	< 20
COC(=O)C1=C(C)N(c2cccc(C(F)(F)F)c2)c2n[nH]c(=O)n2[C@@H]1c1ccc(C#N)cc1CCC[N+](C)(C)CCCS(C)(=O)=O [Example 14, (3-{5-Cyano-2-[(R)-6-methoxycarbonyl-7-methyl-3-oxo-8-(3-trifluoromethyl-phenyl)-2,3,5,8-tetrahydro-[1,2,4]triazolo[4,3-a]pyrimidin-5-yl]-phenyl}-propyl)-(3-methanesulfonyl-propyl)-dimethyl-ammonium formate]	< 20
COC(=O)C1=C(C)N(c2cccc(C(F)(F)F)c2)c2n[nH]c(=O)n2[C@@H]1c1ccc(C#N)cc1CCC[N+](C)(C)CC1CC1 [Example 15, (3-{5-Cyano-2-[(R)-6-methoxycarbonyl-7-methyl-3-oxo-8-(3-trifluoro-methyl-phenyl)-2,3,5,8-tetrahydro-[1,2,4]triazolo[4,3-a]pyrimidin-5-yl]-phenyl}-propyl)-cyclopropylmethyl-di-methyl-ammonium formate]	< 20
COCCC[N+](C)(C)CCCc1cc(C#N)ccc1[C@@H]1C(C(=O)OC)=C(C)N(c2cccc(C(F)(F)F)c2)c2n[nH]c(=O)n21 [Example 17, (3-{5-Cyano-2-[(R)-6-methoxycarbonyl-7-methyl-3-oxo-8-(3-trifluoromethyl-phenyl)-2,3,5,8-tetrahydro-[1,2,4]triazolo[4,3-a]pyrim-idin-5-yl]-phenyl}-propyl)-(3-methoxy-propyl)-dimethyl-ammonium formate]	< 20
COC(=O)C1=C(C)N(c2cccc(C(F)(F)F)c2)c2n[nH]c(=O)n2[C@@H]1c1ccc(C#N)cc1CCC[N+](C)(C)CC(=O)N(C)C [Example 18, (3-{5-Cyano-2-[(R)-6-methoxycarbonyl-7-methyl-3-oxo-8-(3-trifluoromethyl-phenyl)-2,3,5,8-tetrahydro-[1,2,4]triazolo[4,3-a]pyrimi-din-5-yl]-phenyl}-propyl)-dimethylcarbamoyl-methyl-dimethyl-ammonium formate]	< 20
COC(=O)C1=C(C)N(c2cccc(C(F)(F)F)c2)c2n[nH]c(=O)n2[C@@H]1c1ccc(C#N)cc1CCC[N+]12CCC(CC1)CC2 [Example 19, 1-(3-{5-Cyano-2-[(R)-6-methoxycarbonyl-7-methyl-3-oxo-8-(3-trifluoromethyl-phenyl)-2,3,5,8-tetrahydro-[1,2,4]triazolo[4,3-a]pyrimidin-5-yl]-phenyl}-propyl)-1-azonia-bicyclo[2.2.2]octane formate]	< 20
COC(=O)C1=C(C)N(c2cccc(C(F)(F)F)c2)c2n[nH]c(=O)n2[C@@H]1c1ccc(C#N)cc1CCC[N+]12CCN(CC1)CC2 [Example 20, 1-(3-{5-Cyano-2-[(R)-6-methoxycarbonyl-7-methyl-3-oxo-8-(3-trifluoromethyl-phenyl)-2,3,5,8-tetrahydro-[1,2,4]triazolo[4,3-a]pyrimidin-5-yl]-phenyl}-propyl)-4-aza-1-azonia-bicyclo[2.2.2]octane formate]	< 20
